Paper doi:10.1101/236547
These are yes or no findings as the source states them, for the method shown. In cells and extracts the contact can be indirect. Some results given as binding are weak or reduced against the parent protein; the word gives no strength. For some of these results: Tags and fused reporters may be left off the sequences shown. Each block holds one molecule with its values, some of them ahead of it.

Amino acid sequences for entries named in this document (tags omitted). Residues count along the entry.
UniProt P23818, residues 19-907: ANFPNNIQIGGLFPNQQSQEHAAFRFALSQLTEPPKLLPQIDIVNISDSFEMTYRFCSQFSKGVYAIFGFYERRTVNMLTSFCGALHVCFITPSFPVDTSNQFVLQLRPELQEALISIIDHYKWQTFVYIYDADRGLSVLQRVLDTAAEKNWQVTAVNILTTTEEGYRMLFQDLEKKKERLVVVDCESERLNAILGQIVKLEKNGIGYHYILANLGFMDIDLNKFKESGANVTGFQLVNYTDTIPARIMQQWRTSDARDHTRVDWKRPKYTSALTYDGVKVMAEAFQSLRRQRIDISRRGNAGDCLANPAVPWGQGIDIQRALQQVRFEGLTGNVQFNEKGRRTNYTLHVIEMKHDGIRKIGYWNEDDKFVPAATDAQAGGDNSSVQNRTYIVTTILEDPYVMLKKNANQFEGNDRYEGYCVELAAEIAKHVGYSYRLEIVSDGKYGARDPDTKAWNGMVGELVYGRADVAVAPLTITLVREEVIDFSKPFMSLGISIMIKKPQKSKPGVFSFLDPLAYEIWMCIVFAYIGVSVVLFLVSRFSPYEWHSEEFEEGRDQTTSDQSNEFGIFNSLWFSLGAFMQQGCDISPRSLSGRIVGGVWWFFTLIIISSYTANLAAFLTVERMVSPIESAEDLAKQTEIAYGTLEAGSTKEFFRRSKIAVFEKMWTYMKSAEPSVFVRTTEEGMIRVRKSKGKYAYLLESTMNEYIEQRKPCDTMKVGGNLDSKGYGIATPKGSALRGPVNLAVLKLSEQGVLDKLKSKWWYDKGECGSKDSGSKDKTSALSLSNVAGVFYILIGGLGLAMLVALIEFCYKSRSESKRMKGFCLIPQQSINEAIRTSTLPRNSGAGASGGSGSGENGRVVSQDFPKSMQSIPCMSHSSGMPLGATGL
UniProt P19490, residues 19-907: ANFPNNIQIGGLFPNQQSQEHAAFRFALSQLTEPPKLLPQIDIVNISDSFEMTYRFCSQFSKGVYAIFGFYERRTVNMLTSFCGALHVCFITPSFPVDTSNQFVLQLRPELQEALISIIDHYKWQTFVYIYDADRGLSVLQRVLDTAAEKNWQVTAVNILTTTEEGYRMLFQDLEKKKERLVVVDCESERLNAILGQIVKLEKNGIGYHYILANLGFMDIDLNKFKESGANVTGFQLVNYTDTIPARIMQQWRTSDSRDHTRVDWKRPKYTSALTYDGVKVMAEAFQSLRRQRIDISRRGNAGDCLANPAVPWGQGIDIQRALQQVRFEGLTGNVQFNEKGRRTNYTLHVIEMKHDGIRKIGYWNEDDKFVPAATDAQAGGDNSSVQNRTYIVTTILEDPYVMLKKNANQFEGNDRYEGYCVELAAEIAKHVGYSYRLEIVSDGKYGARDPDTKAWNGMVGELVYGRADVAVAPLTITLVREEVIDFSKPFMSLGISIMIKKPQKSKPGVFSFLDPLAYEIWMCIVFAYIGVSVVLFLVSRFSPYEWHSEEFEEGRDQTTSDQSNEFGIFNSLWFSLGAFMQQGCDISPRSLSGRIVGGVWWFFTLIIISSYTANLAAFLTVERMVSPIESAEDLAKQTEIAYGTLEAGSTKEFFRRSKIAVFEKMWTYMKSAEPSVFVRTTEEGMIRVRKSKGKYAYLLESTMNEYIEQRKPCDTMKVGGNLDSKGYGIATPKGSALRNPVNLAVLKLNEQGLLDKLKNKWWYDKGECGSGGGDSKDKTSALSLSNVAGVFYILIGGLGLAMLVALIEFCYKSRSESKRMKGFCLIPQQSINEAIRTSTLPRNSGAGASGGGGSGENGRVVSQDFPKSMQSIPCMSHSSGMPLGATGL
UniProt P19491, residues 22-883: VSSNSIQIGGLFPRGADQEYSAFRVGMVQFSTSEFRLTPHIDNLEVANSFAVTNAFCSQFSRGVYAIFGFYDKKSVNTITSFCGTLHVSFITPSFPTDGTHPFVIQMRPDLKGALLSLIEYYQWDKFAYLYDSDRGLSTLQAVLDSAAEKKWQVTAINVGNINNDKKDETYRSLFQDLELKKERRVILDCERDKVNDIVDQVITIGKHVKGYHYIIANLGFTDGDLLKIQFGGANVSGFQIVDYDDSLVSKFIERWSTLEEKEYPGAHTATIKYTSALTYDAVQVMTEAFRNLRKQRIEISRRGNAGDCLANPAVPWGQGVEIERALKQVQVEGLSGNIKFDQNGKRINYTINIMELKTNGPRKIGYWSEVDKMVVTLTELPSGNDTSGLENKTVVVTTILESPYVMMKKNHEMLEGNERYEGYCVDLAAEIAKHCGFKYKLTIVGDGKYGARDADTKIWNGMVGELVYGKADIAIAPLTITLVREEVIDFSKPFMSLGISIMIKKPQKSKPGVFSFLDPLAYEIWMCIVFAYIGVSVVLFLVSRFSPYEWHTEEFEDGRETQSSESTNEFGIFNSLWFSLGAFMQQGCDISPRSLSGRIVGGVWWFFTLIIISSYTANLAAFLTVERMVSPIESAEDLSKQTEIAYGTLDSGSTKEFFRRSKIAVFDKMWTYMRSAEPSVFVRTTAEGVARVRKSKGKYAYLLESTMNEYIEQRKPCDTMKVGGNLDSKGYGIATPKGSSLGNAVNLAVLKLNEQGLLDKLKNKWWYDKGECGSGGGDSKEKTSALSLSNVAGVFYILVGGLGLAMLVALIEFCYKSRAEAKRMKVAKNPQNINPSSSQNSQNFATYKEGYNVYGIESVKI

Key:
Test in all cases: co-IP
[1] = target: T1, GFP-tagged LARGE (LARGE-GFP) (UniProt O95461)
T1 sequence: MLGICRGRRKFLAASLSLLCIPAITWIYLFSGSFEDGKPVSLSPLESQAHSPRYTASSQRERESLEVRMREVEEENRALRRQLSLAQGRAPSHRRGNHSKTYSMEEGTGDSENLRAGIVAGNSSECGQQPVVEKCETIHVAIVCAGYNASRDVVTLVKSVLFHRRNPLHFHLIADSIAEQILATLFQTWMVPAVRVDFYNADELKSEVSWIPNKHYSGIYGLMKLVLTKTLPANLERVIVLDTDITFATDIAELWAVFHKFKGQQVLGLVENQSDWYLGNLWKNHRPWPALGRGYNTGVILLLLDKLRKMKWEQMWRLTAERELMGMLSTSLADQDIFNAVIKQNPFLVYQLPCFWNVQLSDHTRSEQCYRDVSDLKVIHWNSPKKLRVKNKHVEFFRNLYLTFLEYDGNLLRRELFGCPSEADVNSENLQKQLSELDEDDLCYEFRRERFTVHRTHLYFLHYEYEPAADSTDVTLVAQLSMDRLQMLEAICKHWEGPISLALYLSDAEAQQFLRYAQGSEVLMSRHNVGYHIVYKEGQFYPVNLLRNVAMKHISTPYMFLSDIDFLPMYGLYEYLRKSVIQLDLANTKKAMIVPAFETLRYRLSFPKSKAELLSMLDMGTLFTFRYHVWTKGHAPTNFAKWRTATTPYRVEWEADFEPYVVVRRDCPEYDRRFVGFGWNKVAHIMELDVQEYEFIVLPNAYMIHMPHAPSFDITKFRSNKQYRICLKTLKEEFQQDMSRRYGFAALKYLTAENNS

[2] = target: GluA1 (endogenous, cultured hippocampal neurons) (mouse or rat (endogenous in cultured hippocampal neurons)) (UniProt P23818)
[3] = target: myc-tagged GluA1 (myc-GluA1) (UniProt P19490)

- binding [1]: binds
Molecule: myc-GluA2 (from UniProt P19491 22-883) (receptor)

- binding [1]: binds
Molecule: myc-tagged GluA1 (myc-GluA1) (from UniProt P19490 19-907) (receptor)

- binding [2]: binds
B1: LARGE (endogenous, cultured hippocampal neurons) (protein, UniProt Q9Z1M7 1-756)
chain: MLGICRGRRKFLAASLTLLCIPAITWIYLFAGSFEDGKPVSLSPLESQAHSPRYTASSQRERESLEVRVREVEEENRALRRQLSLAQGQSPAHHRGNHSKTYSMEEGTGDSENLRAGIVAGNSSECGQQPAVEKCETIHVAIVCAGYNASRDVVTLVKSVLFHRRNPLHFHLIADSIAEQILATLFQTWMVPAVRVDFYNADELKSEVSWIPNKHYSGIYGLMKLVLTKTLPANLERVIVLDTDITFATDIAELWAVFHKFKGQQVLGLVENQSDWYLGNLWKNHRPWPALGRGYNTGVILLLLDKLRKMKWEQMWRLTAERELMGMLSTSLADQDIFNAVIKQNPFLVYQLPCFWNVQLSDHTRSEQCYRDVSDLKVIHWNSPKKLRVKNKHVEFFRNLYLTFLEYDGNLLRRELFGCPSETDVNNENLQKQLSELDEDDLCYEFRRERFTVHRTHLYFLHYEFEPSADNTDVTLVAQLSMDRLQMLEAICKHWEGPISLALYLSDAEAQQFLRYAQGSEVLMSRQNVGYHIVYKEGQFYPVNLLRNVAMKHISTPYMFLSDIDFLPMYGLYEYLRKSVIQLDLANTKKAMIVPAFETLRYRLSFPKSKAELLSMLDMGTLFTFRYHVWTKGHAPTNFAKWRTATTPYQVEWEADFEPYVVVRRDCPEYDRRFVGFGWNKVAHIMELDAQEYEFTVLPNAYMIHMPHAPSFDITKFRSNKQYRICLKTLKEEFQQDMSRRYGFAALKYLTAENNS

- binding [3]: binds
B2: GFP-tagged LARGE (LARGE-GFP) (protein, UniProt O95461 1-756)
chain: T1 sequence
